# Experimental data: the supplement of paper PMC7666118
# Amino acid sequences for entries named in this document (tags omitted). A change or cut given only in a name is not applied to a line headed by its entry.
# UniProt Q9UIJ7: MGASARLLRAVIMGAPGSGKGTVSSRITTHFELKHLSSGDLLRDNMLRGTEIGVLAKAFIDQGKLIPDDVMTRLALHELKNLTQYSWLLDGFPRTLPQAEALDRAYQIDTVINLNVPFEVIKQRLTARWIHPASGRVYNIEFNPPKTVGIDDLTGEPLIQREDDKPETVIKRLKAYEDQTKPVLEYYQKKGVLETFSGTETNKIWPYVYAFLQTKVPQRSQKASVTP
# UniProt P12429: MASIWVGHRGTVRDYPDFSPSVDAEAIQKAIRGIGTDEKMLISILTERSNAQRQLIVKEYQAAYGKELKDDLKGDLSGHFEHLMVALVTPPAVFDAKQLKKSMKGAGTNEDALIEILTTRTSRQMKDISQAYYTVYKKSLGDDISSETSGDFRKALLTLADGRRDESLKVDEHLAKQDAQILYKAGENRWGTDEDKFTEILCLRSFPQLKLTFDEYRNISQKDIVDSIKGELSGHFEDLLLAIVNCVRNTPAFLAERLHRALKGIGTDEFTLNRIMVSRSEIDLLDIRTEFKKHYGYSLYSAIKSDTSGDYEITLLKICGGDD
# UniProt Q6ULP2: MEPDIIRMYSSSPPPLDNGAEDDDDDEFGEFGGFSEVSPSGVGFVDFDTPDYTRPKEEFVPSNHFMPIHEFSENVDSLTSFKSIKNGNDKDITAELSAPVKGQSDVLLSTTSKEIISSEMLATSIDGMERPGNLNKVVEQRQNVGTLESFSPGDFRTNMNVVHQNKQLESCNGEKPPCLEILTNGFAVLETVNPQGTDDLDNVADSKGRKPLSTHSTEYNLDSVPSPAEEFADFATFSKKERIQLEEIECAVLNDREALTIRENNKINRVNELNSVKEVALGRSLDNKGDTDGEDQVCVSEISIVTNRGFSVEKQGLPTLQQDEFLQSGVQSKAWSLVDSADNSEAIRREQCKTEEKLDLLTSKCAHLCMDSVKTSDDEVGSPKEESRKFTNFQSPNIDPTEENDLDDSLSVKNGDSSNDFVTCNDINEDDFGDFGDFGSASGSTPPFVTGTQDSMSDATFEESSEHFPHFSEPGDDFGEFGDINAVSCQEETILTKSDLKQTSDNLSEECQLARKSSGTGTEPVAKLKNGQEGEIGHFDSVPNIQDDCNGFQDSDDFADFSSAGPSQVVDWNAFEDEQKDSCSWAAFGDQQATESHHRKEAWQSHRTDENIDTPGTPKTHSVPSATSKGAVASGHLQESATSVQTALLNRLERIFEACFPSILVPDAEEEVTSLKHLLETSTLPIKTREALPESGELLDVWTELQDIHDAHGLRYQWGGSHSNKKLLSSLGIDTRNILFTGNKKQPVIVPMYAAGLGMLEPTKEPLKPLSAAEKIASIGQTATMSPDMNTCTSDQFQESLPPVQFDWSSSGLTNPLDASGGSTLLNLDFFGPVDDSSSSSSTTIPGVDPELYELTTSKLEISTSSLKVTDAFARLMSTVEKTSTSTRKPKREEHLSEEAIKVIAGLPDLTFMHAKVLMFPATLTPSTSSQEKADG
# UniProt Q9BQE5: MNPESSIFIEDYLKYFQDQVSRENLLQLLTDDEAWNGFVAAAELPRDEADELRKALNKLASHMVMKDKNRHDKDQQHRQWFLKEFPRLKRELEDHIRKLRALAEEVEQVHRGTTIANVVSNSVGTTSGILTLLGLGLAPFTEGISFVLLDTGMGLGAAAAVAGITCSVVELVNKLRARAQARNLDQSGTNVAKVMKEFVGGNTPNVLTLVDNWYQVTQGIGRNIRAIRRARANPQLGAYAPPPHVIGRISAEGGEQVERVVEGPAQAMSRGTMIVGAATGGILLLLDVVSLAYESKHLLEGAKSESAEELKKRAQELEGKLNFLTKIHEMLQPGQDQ
# UniProt Q9UHB7: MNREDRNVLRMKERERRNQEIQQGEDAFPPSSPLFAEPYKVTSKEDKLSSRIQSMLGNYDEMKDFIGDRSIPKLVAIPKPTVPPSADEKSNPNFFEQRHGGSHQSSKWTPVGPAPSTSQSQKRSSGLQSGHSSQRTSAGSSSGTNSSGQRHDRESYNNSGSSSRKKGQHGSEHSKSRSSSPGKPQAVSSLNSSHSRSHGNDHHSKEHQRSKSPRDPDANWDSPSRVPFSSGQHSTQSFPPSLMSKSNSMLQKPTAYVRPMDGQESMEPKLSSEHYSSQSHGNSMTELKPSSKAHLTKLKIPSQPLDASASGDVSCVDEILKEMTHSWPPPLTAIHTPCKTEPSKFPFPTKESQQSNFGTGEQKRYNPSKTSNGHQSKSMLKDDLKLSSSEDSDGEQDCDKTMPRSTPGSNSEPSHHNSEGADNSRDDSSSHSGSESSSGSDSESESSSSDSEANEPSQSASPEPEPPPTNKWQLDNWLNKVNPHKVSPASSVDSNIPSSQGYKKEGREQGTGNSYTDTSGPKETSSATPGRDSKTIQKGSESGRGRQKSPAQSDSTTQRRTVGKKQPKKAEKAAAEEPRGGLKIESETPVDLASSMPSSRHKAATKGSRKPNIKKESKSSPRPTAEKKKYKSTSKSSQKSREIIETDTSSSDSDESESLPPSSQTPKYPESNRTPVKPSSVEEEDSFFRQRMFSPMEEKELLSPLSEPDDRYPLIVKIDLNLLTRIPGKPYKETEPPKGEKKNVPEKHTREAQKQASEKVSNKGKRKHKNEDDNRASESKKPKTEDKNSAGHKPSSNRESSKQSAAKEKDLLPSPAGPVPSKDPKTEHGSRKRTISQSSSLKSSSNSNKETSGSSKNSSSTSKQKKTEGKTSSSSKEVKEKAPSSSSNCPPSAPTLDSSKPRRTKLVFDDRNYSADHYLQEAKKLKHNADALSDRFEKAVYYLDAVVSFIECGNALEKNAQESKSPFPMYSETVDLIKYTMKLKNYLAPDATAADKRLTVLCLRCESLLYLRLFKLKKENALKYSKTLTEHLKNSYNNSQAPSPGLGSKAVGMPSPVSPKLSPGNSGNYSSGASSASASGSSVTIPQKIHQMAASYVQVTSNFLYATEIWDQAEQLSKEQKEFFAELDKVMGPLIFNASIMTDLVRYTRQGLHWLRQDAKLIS
# UniProt P20073: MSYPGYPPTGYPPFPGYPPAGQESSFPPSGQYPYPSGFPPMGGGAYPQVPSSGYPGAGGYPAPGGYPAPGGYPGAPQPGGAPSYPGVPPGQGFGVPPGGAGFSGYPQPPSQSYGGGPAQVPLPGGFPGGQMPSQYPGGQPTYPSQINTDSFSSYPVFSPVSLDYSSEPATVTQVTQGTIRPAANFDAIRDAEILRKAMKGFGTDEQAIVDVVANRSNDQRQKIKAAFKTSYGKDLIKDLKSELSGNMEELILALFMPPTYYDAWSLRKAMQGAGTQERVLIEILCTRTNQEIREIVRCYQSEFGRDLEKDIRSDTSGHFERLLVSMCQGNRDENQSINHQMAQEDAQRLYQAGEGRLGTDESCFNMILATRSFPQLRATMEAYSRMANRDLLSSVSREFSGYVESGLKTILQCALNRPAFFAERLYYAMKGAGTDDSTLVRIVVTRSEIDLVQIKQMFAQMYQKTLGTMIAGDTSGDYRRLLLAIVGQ
# UniProt Q9H6U8: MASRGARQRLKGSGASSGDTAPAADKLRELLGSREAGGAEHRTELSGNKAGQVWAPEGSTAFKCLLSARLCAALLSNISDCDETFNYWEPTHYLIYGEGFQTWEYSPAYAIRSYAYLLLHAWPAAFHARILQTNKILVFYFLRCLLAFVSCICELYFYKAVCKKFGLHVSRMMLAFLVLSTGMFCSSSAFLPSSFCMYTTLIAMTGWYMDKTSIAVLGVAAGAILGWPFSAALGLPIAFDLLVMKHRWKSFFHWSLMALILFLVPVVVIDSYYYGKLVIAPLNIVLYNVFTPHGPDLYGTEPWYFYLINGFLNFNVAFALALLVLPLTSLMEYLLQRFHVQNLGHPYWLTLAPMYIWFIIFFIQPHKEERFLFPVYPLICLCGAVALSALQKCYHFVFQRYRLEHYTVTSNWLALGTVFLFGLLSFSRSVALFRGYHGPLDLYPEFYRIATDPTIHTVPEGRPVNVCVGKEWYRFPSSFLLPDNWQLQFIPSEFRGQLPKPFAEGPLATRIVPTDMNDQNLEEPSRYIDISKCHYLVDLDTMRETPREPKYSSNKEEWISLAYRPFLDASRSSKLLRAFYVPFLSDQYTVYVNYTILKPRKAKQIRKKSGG
# UniProt Q5T8D3: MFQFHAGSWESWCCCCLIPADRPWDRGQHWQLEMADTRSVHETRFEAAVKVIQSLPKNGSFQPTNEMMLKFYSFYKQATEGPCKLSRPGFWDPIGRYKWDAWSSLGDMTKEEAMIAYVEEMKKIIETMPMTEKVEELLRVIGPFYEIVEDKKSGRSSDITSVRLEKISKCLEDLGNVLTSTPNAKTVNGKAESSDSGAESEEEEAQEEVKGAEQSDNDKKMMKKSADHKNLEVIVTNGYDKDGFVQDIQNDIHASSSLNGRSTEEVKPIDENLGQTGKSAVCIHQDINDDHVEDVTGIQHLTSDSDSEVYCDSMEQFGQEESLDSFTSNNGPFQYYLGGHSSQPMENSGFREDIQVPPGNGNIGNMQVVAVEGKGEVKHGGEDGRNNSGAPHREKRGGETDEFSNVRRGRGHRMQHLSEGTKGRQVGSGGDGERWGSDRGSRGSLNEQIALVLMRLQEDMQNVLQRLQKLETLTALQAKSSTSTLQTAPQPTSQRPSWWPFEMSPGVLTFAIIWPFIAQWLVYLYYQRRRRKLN
# UniProt Q6UXV4: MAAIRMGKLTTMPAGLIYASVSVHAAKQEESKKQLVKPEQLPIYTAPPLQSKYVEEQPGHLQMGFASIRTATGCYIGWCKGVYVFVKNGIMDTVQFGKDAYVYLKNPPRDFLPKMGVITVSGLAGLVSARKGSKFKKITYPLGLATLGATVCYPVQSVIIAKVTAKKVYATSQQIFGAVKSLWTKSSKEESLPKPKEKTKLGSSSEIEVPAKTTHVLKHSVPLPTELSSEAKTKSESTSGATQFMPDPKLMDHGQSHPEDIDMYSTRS
# UniProt Q9H8Y5: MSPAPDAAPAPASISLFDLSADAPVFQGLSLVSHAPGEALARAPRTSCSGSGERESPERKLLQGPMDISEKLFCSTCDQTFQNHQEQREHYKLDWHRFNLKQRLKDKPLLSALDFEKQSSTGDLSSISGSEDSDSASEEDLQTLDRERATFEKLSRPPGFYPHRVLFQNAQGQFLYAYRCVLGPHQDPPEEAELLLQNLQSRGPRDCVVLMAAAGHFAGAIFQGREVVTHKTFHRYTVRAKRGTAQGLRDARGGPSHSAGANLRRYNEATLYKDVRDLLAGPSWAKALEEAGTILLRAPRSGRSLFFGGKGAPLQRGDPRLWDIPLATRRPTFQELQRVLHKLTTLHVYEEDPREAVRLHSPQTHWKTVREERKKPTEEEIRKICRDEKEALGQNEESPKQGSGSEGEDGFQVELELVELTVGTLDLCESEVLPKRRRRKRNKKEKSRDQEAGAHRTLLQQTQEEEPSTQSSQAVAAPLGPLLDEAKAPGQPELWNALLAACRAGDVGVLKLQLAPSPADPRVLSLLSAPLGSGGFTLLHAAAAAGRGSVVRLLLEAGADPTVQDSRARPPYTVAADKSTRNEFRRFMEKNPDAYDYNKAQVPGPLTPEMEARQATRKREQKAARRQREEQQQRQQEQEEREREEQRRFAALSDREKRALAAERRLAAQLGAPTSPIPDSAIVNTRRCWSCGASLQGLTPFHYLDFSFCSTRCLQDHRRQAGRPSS
# UniProt Q92888: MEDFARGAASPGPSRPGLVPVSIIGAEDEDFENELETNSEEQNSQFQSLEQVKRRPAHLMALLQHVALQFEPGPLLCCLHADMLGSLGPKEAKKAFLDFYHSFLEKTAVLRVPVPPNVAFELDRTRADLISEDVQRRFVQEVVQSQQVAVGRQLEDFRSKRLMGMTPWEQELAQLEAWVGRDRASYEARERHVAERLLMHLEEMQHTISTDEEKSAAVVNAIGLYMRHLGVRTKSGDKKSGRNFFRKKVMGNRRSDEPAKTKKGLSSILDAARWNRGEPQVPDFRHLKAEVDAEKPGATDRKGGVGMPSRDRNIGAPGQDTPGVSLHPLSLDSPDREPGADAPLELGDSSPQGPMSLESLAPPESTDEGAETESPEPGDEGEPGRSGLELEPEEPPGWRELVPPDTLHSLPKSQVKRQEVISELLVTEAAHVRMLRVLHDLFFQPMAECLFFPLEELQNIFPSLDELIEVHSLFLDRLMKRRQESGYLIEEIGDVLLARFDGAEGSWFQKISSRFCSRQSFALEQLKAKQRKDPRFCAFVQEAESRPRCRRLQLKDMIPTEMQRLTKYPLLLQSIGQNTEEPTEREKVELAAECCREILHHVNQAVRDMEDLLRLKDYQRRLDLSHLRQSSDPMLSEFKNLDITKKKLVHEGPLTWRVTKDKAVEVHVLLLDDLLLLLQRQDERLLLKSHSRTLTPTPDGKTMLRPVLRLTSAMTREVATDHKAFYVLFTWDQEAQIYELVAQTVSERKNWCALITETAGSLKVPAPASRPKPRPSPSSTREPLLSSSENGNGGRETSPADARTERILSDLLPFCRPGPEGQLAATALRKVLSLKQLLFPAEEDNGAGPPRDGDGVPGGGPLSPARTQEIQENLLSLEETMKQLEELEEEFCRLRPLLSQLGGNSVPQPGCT
# The other results are listed elsewhere or left out.
# Compound: COc1ccc(Cn2ccc3ccc(C(=O)NO)cc32)cc1
# Assay: dose-dependent thermal stabilisation call (2D-TPP, DLPTP, 10% FDR) (binary (1 = stabilised)); higher = stabilised by the compound
# Details: system: HL-60 intact cells; concentration range 0.04-10 µM
row,Target,dose-dependent thermal stabilisation call
1,ALDOA (UniProt P04075),inactive: 0
2,AK3 (UniProt Q9UIJ7),inactive: 0
3,ANXA3 (UniProt P12429),inactive: 0
4,ANKH (UniProt Q9HCJ1),inactive: 0
5,ARF6 (UniProt P62330),inactive: 0
6,AFTPH (UniProt Q6ULP2),inactive: 0
7,APOL2 (UniProt Q9BQE5),inactive: 0
8,ADFP (UniProt Q99541),inactive: 0
9,ACTL8 (UniProt Q9H568),inactive: 0
10,ACTN1 (UniProt P12814),inactive: 0
11,AFF4 (UniProt Q9UHB7),inactive: 0
12,AP3B1 (UniProt O00203),inactive: 0
13,ARID2 (UniProt Q68CP9),inactive: 0
14,ADNP2 (UniProt Q6IQ32),inactive: 0
15,ALDH3A2 (UniProt P51648),inactive: 0
16,ARFGEF2 (UniProt Q9Y6D5),inactive: 0
17,ANXA7 (UniProt P20073),inactive: 0
18,ALG9 (UniProt Q9H6U8),inactive: 0
19,ADAM9 (UniProt Q13443),inactive: 0
20,ACBD5 (UniProt Q5T8D3),inactive: 0
21,ACLY (UniProt P53396),active: 1
22,ANAPC7 (UniProt Q9UJX3),inactive: 0
23,APOOL (UniProt Q6UXV4),inactive: 0
24,ANKZF1 (UniProt Q9H8Y5),inactive: 0
25,ALDOC (UniProt P09972),inactive: 0
26,ARHGEF1 (UniProt Q92888),inactive: 0
27,AGPAT3 (UniProt Q9NRZ7),inactive: 0

# Two entries picked at random from those above:
row,Target,dose-dependent thermal stabilisation call
3,ANXA3 (UniProt P12429),inactive: 0
5,ARF6 (UniProt P62330),inactive: 0
